# Laboratory results taken from PubChem BioAssay AID588499 (NMMLSC, 2011).
# In all, about 360,000 compounds went through this assay and about 610 (0.17%) were called active. The inconclusive results got no clear call from the source; some entries with a clear call stand among them for comparison. No stated cut-off is given here; in the data, active means inhibition above about 30%; inconclusive means no clear call, values can overlap the other calls; inactive means below that.
# Test system: Botulinum neurotoxin type A light chain protease (Clostridium botulinum A str. ATCC 3502)
# Experiment: blockers of BoNT/A LC substrate cleavage – biochemical, flow cytometry, MLPCN library, primary screen (AID 588499); further: plate controls were buffer without enzyme for full effect and enzyme alone for no effect
# Settings: multiplex microsphere protease substrate cleavage, at 10 µM, active compounds read high
row,SMILES,inhibition
1,Cc1cc2cc(CNC(=O)c3cccs3)ccc2n1C,active: 79%
2,O=C(Nc1ccccc1Oc1ccccc1)c1cccc([N+](=O)[O-])c1,inconclusive: -0.8%
3,c1ccc(N2CCN(C3CC4CCC3C4)CC2)cc1 (stereo unspecified),inconclusive: 7.3%
4,O=C(CSCc1c(F)cccc1Cl)NCc1ccco1,inconclusive: -0.6%
5,O=C(NCCc1nc2ccccc2[nH]1)/C(=C/c1ccc(F)cc1)NC(=O)c1ccco1,inconclusive: -3.6%
6,CCc1ccc(CN(C)CCc2ccccn2)cc1,inconclusive: 0.2%
7,Cc1nn(CCC#N)c2c1P(=S)(N1CCCC1)OC(c1ccc(F)cc1)=N2 (stereo unspecified),inconclusive: -3.9%
8,CCCCc1nc2ccccc2c(=O)n1-c1ccc(Cl)cc1[N+](=O)[O-],inconclusive: 1.6%
9,CCc1noc(C)c1C(=O)N(CCC(C)C)c1c(N)n(Cc2ccccc2)c(=O)[nH]c1=O,inconclusive: -4.6%
10,Cc1cccc(N2CC(C(=O)Nc3ccccc3N3CCOCC3)CC2=O)c1C (stereo unspecified),inactive: 0.1%
11,CC(/C=N/NC(=O)c1nnn(-c2nonc2N)c1CN(C)C)=C\c1ccco1,inconclusive: -4.8%
12,Cc1ccc(S(=O)(=O)Nc2ccc3nc(N)sc3c2)cc1,inconclusive: 6.7%
13,Cc1nc2ccsc2c(=O)n1-c1cccc(Cl)c1,inconclusive: -10.8%
14,COc1cc(OC)cc(C(=O)/C=C2\Sc3ccccc3N2C)c1,inactive: -0.6%
15,CC1C/C(=N\NC(=S)NCc2ccccc2)CC(C)(C)C1 (stereo unspecified),inconclusive: -2.2%
16,Cc1cccc(CN2C(=O)c3ccccc3S(=O)(=O)c3ccc(C(=O)NCCCN4CCCC4)cc32)c1,inactive: -1.8%
17,COc1ccc(-n2c(N)c(C(=O)NCc3ccco3)c3nc4ccccc4nc32)cc1OC,inactive: 2.4%
18,CSc1ncc(Cl)c(C(=O)Nc2ccccc2C)n1,inactive: 0.7%
19,O=C(Cn1c(=O)c2cccn2c2ccccc21)Nc1cc(F)ccc1F,inconclusive: -2.8%
20,CC(=O)C1C(c2ccc(F)c(F)c2)NC(=O)NC1(O)C(F)(F)F (stereo unspecified),inconclusive: 8.1%
21,Cc1ccc(S(=O)(=O)NCCC(=O)N2CCN(c3ccccc3)CC2)cc1C,inactive: -0.6%
22,Cc1nc(Cl)cc(N/N=C/c2ccccc2)n1,inconclusive: -1%
23,CC1CC(CCN)(c2ccccc2)C(C)CN1C (stereo unspecified),inconclusive: -31.3%

row,SMILES,inhibition
1,CCCCCCN1CC(=O)N2[C@@H](Cc3c([nH]c4ccccc34)C2(C)C)C1=O,inactive: -0.6%
2,CCOC(=O)CON1C(=O)C(=O)N(OCC(=O)OCC)[C@H]2CCCC[C@H]21,inconclusive: -36.5%
3,Cc1ccc(S(=O)(=O)N2CCC(C(=O)N3CCC[C@H]3C(=O)NC3CCS(=O)(=O)C3)CC2)cc1 (stereo partly specified),inconclusive: -2%
4,CN(Cc1ccccc1)CC(O)COc1ccc(CNCc2ccc(Cl)s2)cc1 (stereo unspecified),inactive: 0.4%
5,O=C(Nc1ccc(Br)cc1)C1CCN(C(=O)c2ccc(F)cc2)CC1,inactive: 0.5%
6,O=C(Cn1cnc2ccccc21)c1ccccc1,inconclusive: 4.5%
7,CSc1nc(NCc2ccco2)c2sc3nc(C(C)C)c4c(c3c2n1)CC(C)(C)OC4,inconclusive: 1.3%
8,Cc1cc(NC(=O)NN2CCOCC2)nn1-c1c(Cl)cccc1Cl,inconclusive: -0.2%
9,CC1=CC=CC2=NC(=O)CC(C)(C(=O)N(CC(=O)NC3CCCC3)c3ccccc3C)N12 (stereo unspecified),inactive: 0%
10,Cn1c(CSCC(=O)Nc2ccccc2)nnc1SCc1ccccc1,inconclusive: 17.6%
11,CCN(c1ccc(N=Cc2c(O)n(Cc3ccc(OC)cc3)c(=O)c3ccccc23)cc1)C(C)C,active: 37.4%
12,CCOC(=O)CCCSc1nc2sc3c(c2c(=O)[nH]1)CCC3,inconclusive: -0.7%
13,Cc1ccc(N2C(=O)CSC2c2c(F)cccc2Cl)cc1 (stereo unspecified),inconclusive: 12.3%
14,Cn1c(=O)c2c(ncn2CC(=O)Nc2nc(-c3ccccc3Cl)cs2)n(C)c1=O,inactive: -1.2%
15,COc1ccc(C(=O)Cn2nnc(-c3ccc(N4CCOCC4)cc3)n2)cc1OC,inconclusive: -5.4%
16,CS(=O)(=O)N(CC(=O)N1CCCC1)c1ccc(OCc2ccccc2)cc1,inconclusive: 0%
17,CC(=O)c1c(C)n([O-])c2ccc(C)cc2[n+]1=O,inconclusive: -0.9%
18,COc1cccc(NC(=O)c2oc3ccccc3c2NC(=O)C2CC2)c1,inconclusive: -1.8%
19,O=C(CSc1nc(O)c(Cc2ccccc2)c(=O)[nH]1)Nc1ccccc1,inconclusive: 4.2%
20,CC(=O)N1CCN(c2ccc(NCc3ccc4c(c3)OCO4)cc2)CC1,inactive: 1.9%
21,CCCCN(C(=O)CN1C(=O)C2CCCCC2C1=O)c1c(N)n(Cc2ccccc2)c(=O)[nH]c1=O (stereo unspecified),inconclusive: -1.7%
22,CSc1nc2sc3c(c2c2nnnn12)CCCC3,inconclusive: 4.9%
23,O=C1Cc2ccccc2C(=O)N1Cc1ccccc1,inactive: -0.3%

# Shown tab-delimited: entries from further up
row	SMILES	inhibition
10	Cc1cccc(N2CC(C(=O)Nc3ccccc3N3CCOCC3)CC2=O)c1C (stereo unspecified)	inactive: 0.1%
17	COc1ccc(-n2c(N)c(C(=O)NCc3ccco3)c3nc4ccccc4nc32)cc1OC	inactive: 2.4%
18	CSc1ncc(Cl)c(C(=O)Nc2ccccc2C)n1	inactive: 0.7%
15	COc1ccc(C(=O)Cn2nnc(-c3ccc(N4CCOCC4)cc3)n2)cc1OC	inconclusive: -5.4%

# Later entries:

row,SMILES,inhibition
1,Cc1ccccc1NC(=O)Cc1nc(COC(=O)C(NC(=O)c2ccccc2C)C(C)C)cs1 (stereo unspecified),inactive: 1.5%
2,Cc1ccc(-n2c(C(C)C)nc3oc4ccccc4c(=O)c3c2=O)cc1,inconclusive: -35.7%
3,CCCOC1CCCN(C(=O)c2ccc3oc(C(C)C)nc3c2)C1 (stereo unspecified),inactive: 4.7%
4,CCc1noc(C)c1C(=O)N1CCCC1,inconclusive: 0%
5,Cc1nc(N2CCN(C(=O)c3ccco3)CC2)c2c3c(sc2n1)CCCC3,inconclusive: 3.3%
6,CCNC(=S)NN=C1CCC(C(C)(C)C)CC1 (stereo unspecified),inconclusive: -0.9%
7,CON=C1CCN(c2ncc(C(F)(F)F)cc2Cl)CC1,inconclusive: 1.3%
8,Cc1cc(C)nc(N2CCC(C(=O)NCCc3ccc(F)cc3)CC2)n1,inconclusive: -7.7%
9,Cc1ccccc1SCC(=O)NC1CCOC1=O (stereo unspecified),inactive: 1.2%
10,CCc1cc(-c2n[nH]c(C)c2Oc2ccc(C(C)C)cc2)c(O)cc1O,inconclusive: -9.4%
11,Cc1cc2cc(CNC(=O)c3cccc([N+](=O)[O-])c3)ccc2[nH]1,active: 78.8%
12,O=C(c1ccc(Br)o1)N(Cc1ccccc1)c1ccccn1,inconclusive: 5.1%
13,COC(=O)[C@@H](C)NC(=O)c1ccc2oc(CCc3ccccc3)nc2c1,inconclusive: 3.2%
14,COc1cccc(-c2nnc(SCc3cccnc3)o2)c1,inactive: -2.7%
15,COCc1cccc(C2=CC(=O)C[C@H](c3ccc(F)cc3)C2)c1,inactive: -0.1%
16,COCCn1c(=S)[nH]c2cc(C(=O)N3CCN(Cc4ccc5c(c4)OCO5)CC3)ccc2c1=O,inconclusive: -1.3%
17,CC(=O)Nc1ccc(OCC(O)CNC2CCCC2)cc1 (stereo unspecified),inconclusive: 0.5%
18,O=C(CN1CCOCC1)Nc1cccc(Cl)c1Cl,inconclusive: -4.3%
19,COc1ccc(CC(=O)Oc2ccc(C(C)C)cc2)cc1S(=O)(=O)N1CCOCC1,inactive: -2.8%
20,CCCCCC(=C/c1ccccc1)/C=N/Nc1ccc(S(=O)(=O)N2CCOCC2)cc1[N+](=O)[O-],inactive: 0.1%
21,Nc1ccc(CC(N)c2csc(Nc3nncc4ccccc34)n2)cc1 (stereo unspecified),inactive: 0%
22,CCOc1ccccc1CN1C(=O)C2(OCCO2)c2ccccc21,inactive: 0.3%
23,COc1ccc(/C(O)=C(\C#N)c2nc3ccccc3n2C)cc1OC,inconclusive: 4.3%

row,SMILES,inhibition
1,Cc1cccc(C(=O)NNC(=O)c2c(-c3ccccc3Cl)noc2C)c1O,inactive: -3%
2,CC1(C(=O)N2CCN(c3ccc([N+](=O)[O-])cc3)CC2)CC1(Cl)Cl (stereo unspecified),inactive: -1%
3,O=C(Nc1nncs1)C(Sc1ccccc1)c1ccccc1 (stereo unspecified),inactive: -0.3%
4,COc1ccc(NC(=O)C(=O)N/N=C(\C)CC(=O)Nc2cc(C)ccn2)c(OC)c1,inconclusive: -48.6%
5,COc1ccc(-c2cc(C(=O)OC3CCOC3=O)c3ccccc3n2)cc1 (stereo unspecified),inconclusive: 2.4%
6,Cc1cc(C)c2c(c1)NC(C(=O)O)C1CC=CC21 (stereo unspecified),inconclusive: -2.6%
7,O=C(Nc1cccc(Cl)c1)OC1CN2CCC1CC2 (stereo unspecified),inconclusive: 13.6%
8,COc1cc2c(cc1OC)C(c1cccc(Br)c1)CC(=O)N2 (stereo unspecified),inconclusive: 7.8%
9,COc1ccc(OCc2nc(-c3ccc(F)c(F)c3)cs2)cc1,inconclusive: -11.4%
10,Cn1nc(-c2ccc(C(=O)Nc3cccc(Cl)c3)cc2)c2ccccc2c1=O,inconclusive: -2.4%
11,COc1ccccc1NC(=O)c1cc(Cl)nc2ccccc12,inconclusive: -52.7%
12,O=C(c1cccc(S(=O)(=O)N2CCCC2)c1)N1CCN(S(=O)(=O)c2cccc(Cl)c2)CC1,inconclusive: 3.7%
13,COC(=O)c1cc(OC)c(OC)cc1NC(=O)c1ccco1,inactive: 0.6%
14,Cc1cccc(C)c1NC(=O)Cn1nc(-c2ccccc2)nc1-c1ccccc1,inconclusive: -4.8%
15,O=C1OCc2cc(NC(=O)C3CCCO3)ccc21 (stereo unspecified),inconclusive: 1%
16,CCOc1ccc(-c2nnc(NC(=O)Cc3ccc(OC)cc3)o2)cc1,inactive: 0.9%
17,Cc1cccc(C)c1NC(=O)CSc1nnc(Cn2nnc(-c3ccccc3)n2)n1-c1ccccc1,inconclusive: 1.9%
18,COC(=O)c1ccc(CS(=O)(=O)c2ccc(C)cc2)cc1,inconclusive: 2.7%
19,COc1cccc(CNC(=O)Cc2ccc(OC)c(S(=O)(=O)N3CCOCC3)c2)c1,inactive: 5.8%
20,CCOC(=O)c1sc2cc([N+](=O)[O-])cc(SCCO)c2c1N,inactive: 1.3%
21,CCOC(=O)C1CCN(Cc2ccc(F)c(Br)c2)CC1,inconclusive: -1.2%
22,C/C(CC(=O)Nc1cccnc1)=N\NC(=O)C(C)Oc1ccc(Cl)cc1Cl (stereo unspecified),inconclusive: -0.6%
